Nine molecules from patent US20240108662A1, “ENGINEERED CELLS FUNCTIONALIZED WITH IMMUNE CHECKPOINT MOLECULES AND USES THEREOF” (The University of North Carolina at Chapel Hill, priority 2020, published 2024) can be followed below.

The nature of this series: Proteomic analysis of native murine pancreata and decelled pancreatic ECM (Table 1). The following applies: for Pancreatic ECM: Mean of log2(intensities): abundance of the listed protein in decelled pancreatic ECM; for Native pancreas tissue: Mean of log2(intensities): abundance of the listed protein in native murine pancreas tissue. The arrangement: species or system mouse.

B1: Q9DCA5 (protein, UniProt Q9DCA5 1-353, looked up)
chain: MAATKRKRRGGLEVQAKKPKRSSKDAGQPAKQADVAKEAEEENRDRIPGPVCKGKWKNKERILIFSSRGINFRTRHLMQDLRMLMPHSKADTKMDRKDKLFVINEVCEMKNCNKCIYFEAKKKQDLYMWLSNSPHGPSAKFLVQNIHTLAELKMTGNCLKGSRPLLSFDPAFDDLPHYALLKEFLIQIFSTPRYHPKSQPFVDHVFTFTILDNRIWFRNFQIIEEDAALVEIGPRFVLNLIKIFQGSFGGPTLYENPHYQSPNMHRRVIRSITAAKYRERQQVKDVQKLRKKEPKTILPHDPTADVFVIPAEEKPVEIQWVKPEPKVDLKARKRRIYKRHRKLQQKMSRGSAK
modifications: full-length
On to B1, for which the “Pancreatic ECM: Mean of log2(intensities)” value was 25.61 a.u and the “Native pancreas tissue: Mean of log2(intensities)” value was found to be 22.17 a.u.

B2: Q9Z2Z6 (protein, UniProt Q9Z2Z6 1-301, looked up)
chain: MADEPKPISPFKNLLAGGFGGMCLVFVGHPLDTVKVRLQTQPPSLSGQPPMYSGTLDCFRKTLMREGITGLYRGMAAPIIGVTPMFAVCFFGFGLGKKLQQKSPEDELSYPQLFTAGMLSGVFTTGIMTPGERIKCLLQIQASSGENKYSGTLDCAKKLYQEFGIRGFYKGTVLTLMRDVPASGMYFMTYEWLKNLFTPEGKSVSDLSVPRILVAGGFAGIFNWAVAIPPDVLKSRFQTAPPGKYPNGFRDVLRELIREEGVTSLYKGFNAVMIRAFPANAACFLGFEIAMKFLNWIAPNL
modifications: full-length
For the molecule B2, the “Pancreatic ECM: Mean of log2(intensities)” value was 25.15 a.u and the “Native pancreas tissue: Mean of log2(intensities)” value was 21.70 a.u.

B3: Q9JHW4 (protein, UniProt Q9JHW4 1-583, looked up)
chain: MAGRRVNVNVGVLGHIDSGKTALARALSTTASTAAFDKQPQSRERGITLDLGFSCFVVPLPGAEPGSSDTLLQVTLVDCPGHASLIRTIIGGAQIIDLMMLVIDVTKGMQTQSAECLVIGQIACQKLVVVLNKIDLLAEGKRQAAIDKMTKKMQKTLENTKFRGAPIIPVAAKPGGPEAPETEAPQGISELIELLKSQISIPTRDPSGPFLMSVDHCFSIKGQGTVMTGTILSGTISLGDSVEIPALKVVKKVKSMQMFHTPVTSAMQGDRLGICVTQFDPKLLERGLVCAPESLHTVHAALISVEKIPYFRGPLQTKAKFHITVGHETVMGRTLFFSPAPDSFDLEPVLDSFDLSREYLFQEQYLCKDSMPTATEGDDEADPKAGHAPGGHCPRQQWALVEFEKPVTCPRLCLVIGSRLDADIHTNTCRLAFHGVLLQGLEDKNYIESFLPALRVYKLKHKHGLVERVMDDYSVIGRSLFKKETNIQLFVGLKVQLSTGEQGIIDSAFGQSGKFKIHIPGGLSPESKKILTPTLKKRSRAGRGETTKPEEGTERPEPIQPVTLNLSFKRYVFDTQKRMVQTP
modifications: full-length
Take B3: the “Pancreatic ECM: Mean of log2(intensities)” value stood at 25.63 a.u and the “Native pancreas tissue: Mean of log2(intensities)” value turned out to be 22.25 a.u.

B4: Q3UGP8 (protein, UniProt Q3UGP8 1-474, looked up)
chain: MAQLEGYYFSAALSCTFLVSCLLFSAFSRALREPYMDEIFHLPQAQRYCEGRFSLSQWDPMITTLPGLYLVSVGVVKPASWLLGWSEHVICSIGVLRFVNLLFSVGNFYLLYLLFRKVQPRNKASSSIQRILSTLTLAVFPTLYFFNFLYYTEAGSVFFTLFAYLMCLYGNHRTSALLGFCGFMFRQTNIIWAAFCAGHLIAQKCSEAWKIELQKKKEERLAPTKGPLSELRRVLQFLLVYAMSLKNLRMLFLLTWPYVLLLLAFFAFVVVNGGIVVGDRSSHEACLHFPQLFYFFSFTAFFSFPHLLSLTKVKTFLSLVWKRRVQFSVVTLVSILLVWKFTYVHKYLLADNRHYTFYVWKRVFQRHEVVKYLLVPAYIFAGWAIADSLKAKSIFWNLMFFVCLVASTVPQKLLEFRYFILPYIIYRLNIPLPPISRLVCELGCYTVVNFVTFYIFLNKTFQWPNSQDIQRFMW
modifications: full-length
As to B4, the “Pancreatic ECM: Mean of log2(intensities)” value is recorded as 24.79 a.u and the “Native pancreas tissue: Mean of log2(intensities)” value was 21.36 a.u.

B5: Q4VA53 (protein, UniProt Q4VA53 1-1446, looked up)
chain: MAHSKTRTNDGKITYPPGVKEISDKISKEEMVRRLKMVVKTFMDMDQDSEEEKELYLNLALHLASDFFLKHPDKDVRLLVACCLADIFRIYAPEAPYTSPDKLKDIFMFITRQLKGLEDTKSPQFNRYFYLLENIAWVKSYNICFELEDSNEIFTQLYRTLFSVINNGHNQKVHMHMVDLMSSIICEGDTVSQELLDTVLVNLVPAHKNLNKQAYDLAKALLKRTAQAIEPYITNFFNQVLMLGKTSISDLSEHVFDLILELYNIDSHLLLSVLPQLEFKLKSNDNEERLQVVKLLAKMFGAKDSELASQNKPLWQCYLGRFNDIHVPIRLECVKFASHCLMNHPDLAKDLTEYLKVRSHDPEEAIRHDVIVSIVTAAKKDILLVNDHLLNFVRERTLDKRWRVRKEAMMGLAQIYKKYSLQSAAGKDAAKQISWVKDKLLHIYYQNSIDDRLLVERIFAQYMVPHNLETTERMKCLYYLYATLDLNAVKALNEMWKCQNLLRHQVKDLLDLIKQPKTDASVKAIFSKVMVITRNLPDPGKAQDFMKKFTQVLEDDEKIRKQLEALVSPTCSCKQAEGCVREITKKLGNPKQPTNPFLEMIKFLLERIAPVHIDTESISALIKQVNKSIDGTADDEDEGVPTDQAIRAGLELLKVLSFTHPISFHSAETFESLLACLKMDDEKVAEAALQIFKNTGSKIEEDFPHIRSALLPVLHHKSKKGPPRQAKYAIHCIHAIFSSKETQFAQIFEPLHKSLDPSNLEHLITPLVTIGHIALLAPDQFAAPLKSLVATFIVKDLLMNDRLPGKKTTKLWVPDEEVSPETMVKIQAIKMMVRWLLGMKNNHSKSGTSTLRLLTTILHSDGDLTEQGKISKPDMSRLRLAAGSAIVKLAQEPCYHEIITLEQYQLCALAINDECYQVRQVFAQKLHKGLSRLRLPLEYMAICALCAKDPVKERRAHARQCLVKNITVRREYLKQHAAVSEKLLSLLPEYVVPYTIHLLAHDPDYVKVQDIEQLKDVKECLWFVLEILMAKNENNSHAFIRKMVENIKQTKDAQGPDDTKMNEKLYTVCDVAMNIIMSKSTTYSLESPKDPVLPARFFTQPDKNFSNTKNYLPPEMKSFFTPGKPKTANVLGAVNKPLSSAGKQSQTKSSRMETVSNASSSSNPSSPGRIKGRLDSSEMDHSENEDYTMSSPLPGKKSDKREDPDLSELEKPRSRKKAPVTDPEEKLGMDDLTKLVQEQKPKGSQRGRKRGRTASDSDEQQWPEEKRHKEELLENEDEQNSPPKKGKRGRPPKPLGGGTSKEEPTMKTSKKGNKKKLVPPVVDDDEEEERQIGNTEHKSKSKQHRTSKRAQQRAESPETSAVESTQSTPQKGRGRPSKAPSPSQPPKKIRVGRSKQVATKENDSSEEMDVLQASSPVSDDTTQEGAEEEDISVGNVRRRSSKRERR
modifications: full-length
Consider B5, for which the “Pancreatic ECM: Mean of log2(intensities)” value is given as 24.96 a.u and the “Native pancreas tissue: Mean of log2(intensities)” value was 21.56 a.u.

B6: Q8BYL4 (protein, UniProt Q8BYL4 1-472, looked up)
chain: MAAPMLRRLCRVPQSLVWLRGSRAVRPGARGMLVAPRARGLFKEFFPESGTKTELPELFDRRRAGSSPQTVYCGFDPTGDSLHVGHLLTLLGLFHFQRAGHNVIALVGGSTALLGDPSGRTKGREALSAECVRANAHALRRGLEALAANHARLFADGRPWGSFTVLDNAAWFQEQHLVDFLATVGGHFRMGTLLSRLSVQSRLKSPEGMSLAEFFYQVLQAYDFYYLFQHYGCRVQLGGSDQLGNIMSGYEFIHKLTGEDVFGITVPLITSTTGAKLGKSAGNAVWLNREKTSPFELYQFFVRQQDDSVERYLKLFTFLPLPEIDHIMQLHVKEPEKRVAQKRLAAEVTKLVHGQEGLDSAKRCTQALYHSSIEALEVMSDQELKELFKEASFSELVLDPGTSVIDTCRKANAIPDGPRGYRMITEGGVSINHRQVTNPESVLVIGQHILKNGLSLLKIGKRNFYIIKWLQL
modifications: full-length
As for B6, the “Pancreatic ECM: Mean of log2(intensities)” value is 25.00 a.u and the “Native pancreas tissue: Mean of log2(intensities)” value came out at 21.60 a.u.

B7: Q9WVH9 (protein, UniProt Q9WVH9 1-448, looked up)
chain: MPGLKRILTVTILALWLPHPGNAQQQCTNGFDLDRQSGQCLDIDECRTIPEACRGDMMCVNQNGGYLCIPRTNPVYRGPYSNPYSTSYSGPYPAAAPPVPASNYPTISRPLVCRFGYQMDEGNQCVDVDECATDSHQCNPTQICINTEGGYTCSCTDGYWLLEGQCLDIDECRYGYCQQLCANVPGSYSCTCNPGFTLNDDGRSCQDVNECETENPCVQTCVNTYGSFICRCDPGYELEEDGIHCSDMDECSFSEFLCQHECVNQPGSYFCSCPPGYVLLDDNRSCQDINECEHRNHTCTSLQTCYNLQGGFKCIDPISCEEPYLLIGENRCMCPAEHTSCRDQPFTILYRDMDVVSGRSVPADIFQMQATTRYPGAYYIFQIKSGNEGREFYMRQTGPISATLVMTRPIKGPRDIQLDLEMITVNTVINFRGSSVIRLRIYVSQYPF
modifications: full-length
As for B7, the “Pancreatic ECM: Mean of log2(intensities)” value is 26.11 a.u and the “Native pancreas tissue: Mean of log2(intensities)” value is given as 21.21 a.u.

B8: Q9CZJ2 (protein, UniProt Q9CZJ2 1-685, looked up)
chain: MLTVPEMGLQGLYISSSPERSPVPSPPGSPRTQESCGIAPLTPSQSPKPEARALQQASFSVVVAIDFGTTSSGYAFSFASDPEAIHMMRKWEGGDPGVAHQKTPTCLLLTPEGIFHSFGYTARDYYHDLDPEEARDWLYFEKFKMKIHSATDLTLKTQLEAVNGKKMLALEVFAHALRFFKEHALQELREQSECMLEKGAVRWVLTVPAIWKQPAKQFMREAAYLAGLVSREDAEKLLIALEPEAASVYCRKLRLHQLMDLSSRTAGRGRLGERRSIDSSFRHAREQLRRSRHSRTFLVEAGVGELWAEMQEGDRYMVADCGGGTVDLTVHQLEQPHGTLKELYKASGGPYGAVGVDLAFEQLLCRIFGEDFIAKFKRQRPAAWVDLTIAFEARKRTAGPHRAGALNISLPFSFIDFYRKQRGHNVETALRRSSVNLVKWSSQGMLRMSCEAMNELFQPTVSGIIQHIEMLLAKPEVQGVKLLFLVGGFAESAVLQHAVQEALGTRGLRVVVPHDVGLTILKGAVLFGQAPGVVRVRRSPLTYGVGVLNRFVPGHHPPEKLLVRDGRRWCTDVFERFVAAEQSVALGEEVRRSYCPARPGQRRVLINLYCCAAEDARFITDPGVRKCGALSLELEPEGCPENTGTSPSRREIRAAMQFGDTEIKVTAVDVSTNRSVRAAIDFLSN
modifications: full-length
In the case of B8, the “Pancreatic ECM: Mean of log2(intensities)” value came to 25.80 a.u and the “Native pancreas tissue: Mean of log2(intensities)” value is listed as 22.49 a.u.

B9: Q8BFZ9 (protein, UniProt Q8BFZ9 1-340, looked up)
chain: MAQLGAVVAVASSFFCASLFSAVHKIEEGHIGVYYRGGALLTSTSGPGFHLMLPFITSYKSVQTTLQTDEVKNVPCGTSGGVMIYFDRIEVVNFLVPNAVYDIVKNYTADYDKALIFNKIHHELNQFCSVHTLQEVYIELFDQIDENLKLALQQDLTSMAPGLVIQAVRVTKPNIPEAIRRNYELMESEKTKLLIAAQKQKVVEKEAETERKKALIEAEKVAQVAEITYGQKVMEKETEKKISEIEDAAFLAREKAKADAECYTALKIAEANKLKLTPEYLQLMKYKAIASNSKIYFGKDIPNMFMDSAGGLGKQFEGLSDDKLGFGLEDEPLEAPTKEN
modifications: full-length
As to B9, the “Pancreatic ECM: Mean of log2(intensities)” value is reported as 26.06 a.u and the “Native pancreas tissue: Mean of log2(intensities)” value amounted to 22.66 a.u.
